Among the data in article PMC4691244 are binding values, retold here.

The chains behind the UniProt entries cited, without tags or fusion partners.
UniProt Q9NQT5: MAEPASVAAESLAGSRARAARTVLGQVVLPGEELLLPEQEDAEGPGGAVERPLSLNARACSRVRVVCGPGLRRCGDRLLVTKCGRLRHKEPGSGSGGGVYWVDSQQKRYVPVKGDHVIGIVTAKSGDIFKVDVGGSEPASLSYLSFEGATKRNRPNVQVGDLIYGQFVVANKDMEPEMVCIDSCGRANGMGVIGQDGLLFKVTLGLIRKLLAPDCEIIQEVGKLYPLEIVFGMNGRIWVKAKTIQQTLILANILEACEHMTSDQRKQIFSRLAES
UniProt Q9NPD3: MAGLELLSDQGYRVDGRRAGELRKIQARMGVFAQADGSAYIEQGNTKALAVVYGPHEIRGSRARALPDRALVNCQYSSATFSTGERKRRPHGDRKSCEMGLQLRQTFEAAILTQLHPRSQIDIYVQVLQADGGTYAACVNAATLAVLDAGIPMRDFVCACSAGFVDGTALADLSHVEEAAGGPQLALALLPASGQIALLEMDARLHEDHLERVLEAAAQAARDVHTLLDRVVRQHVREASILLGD

These are yes or no findings as the source states them, for the method shown. In cells and extracts the contact can be indirect. Some binding calls cover weakened binding; strength is not graded here. For some assays here: Where a sequence is shown, tags or fusion partners need not be part of it.

The target in one assay is T1, T7-DGCR8 (human) (UniProt Q8WYQ5).
T1 sequence: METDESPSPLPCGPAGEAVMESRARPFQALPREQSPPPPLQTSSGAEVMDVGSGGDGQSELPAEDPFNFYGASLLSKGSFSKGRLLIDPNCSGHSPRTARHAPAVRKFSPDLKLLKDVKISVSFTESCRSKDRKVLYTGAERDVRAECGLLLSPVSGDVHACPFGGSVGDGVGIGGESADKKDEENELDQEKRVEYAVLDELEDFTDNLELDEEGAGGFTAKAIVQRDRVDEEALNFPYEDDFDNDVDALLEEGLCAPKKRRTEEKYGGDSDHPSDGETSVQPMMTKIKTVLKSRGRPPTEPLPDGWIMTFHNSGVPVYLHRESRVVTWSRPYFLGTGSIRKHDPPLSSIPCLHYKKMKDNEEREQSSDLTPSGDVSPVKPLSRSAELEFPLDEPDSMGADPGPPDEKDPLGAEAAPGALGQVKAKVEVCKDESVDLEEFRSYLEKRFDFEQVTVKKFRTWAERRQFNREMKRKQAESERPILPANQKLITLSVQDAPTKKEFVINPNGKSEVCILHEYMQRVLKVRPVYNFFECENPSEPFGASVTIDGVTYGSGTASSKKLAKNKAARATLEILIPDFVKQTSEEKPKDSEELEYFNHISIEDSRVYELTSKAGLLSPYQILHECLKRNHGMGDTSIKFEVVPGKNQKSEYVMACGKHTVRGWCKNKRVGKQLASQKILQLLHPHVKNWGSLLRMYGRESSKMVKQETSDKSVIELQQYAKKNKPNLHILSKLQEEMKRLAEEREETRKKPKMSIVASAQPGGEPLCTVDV
The experiment in a line: co-IP; anti-T7 or anti-FLAG immunoprecipitation of overexpressed T7-DGCR8, FLAG-DGCR8, FLAG-Drosha (and T7-DGCR8 dRBD1&2 mut) from transfected HEK293T cells; western blot of endogenous partners; in the presence or absence of RNase A (Figure 1C). On the technique in general: A western blot detects proteins with antibodies after separation by electrophoresis.

A further assay deals with T2, FLAG-Drosha (UniProt Q9NRR4).
T2 sequence: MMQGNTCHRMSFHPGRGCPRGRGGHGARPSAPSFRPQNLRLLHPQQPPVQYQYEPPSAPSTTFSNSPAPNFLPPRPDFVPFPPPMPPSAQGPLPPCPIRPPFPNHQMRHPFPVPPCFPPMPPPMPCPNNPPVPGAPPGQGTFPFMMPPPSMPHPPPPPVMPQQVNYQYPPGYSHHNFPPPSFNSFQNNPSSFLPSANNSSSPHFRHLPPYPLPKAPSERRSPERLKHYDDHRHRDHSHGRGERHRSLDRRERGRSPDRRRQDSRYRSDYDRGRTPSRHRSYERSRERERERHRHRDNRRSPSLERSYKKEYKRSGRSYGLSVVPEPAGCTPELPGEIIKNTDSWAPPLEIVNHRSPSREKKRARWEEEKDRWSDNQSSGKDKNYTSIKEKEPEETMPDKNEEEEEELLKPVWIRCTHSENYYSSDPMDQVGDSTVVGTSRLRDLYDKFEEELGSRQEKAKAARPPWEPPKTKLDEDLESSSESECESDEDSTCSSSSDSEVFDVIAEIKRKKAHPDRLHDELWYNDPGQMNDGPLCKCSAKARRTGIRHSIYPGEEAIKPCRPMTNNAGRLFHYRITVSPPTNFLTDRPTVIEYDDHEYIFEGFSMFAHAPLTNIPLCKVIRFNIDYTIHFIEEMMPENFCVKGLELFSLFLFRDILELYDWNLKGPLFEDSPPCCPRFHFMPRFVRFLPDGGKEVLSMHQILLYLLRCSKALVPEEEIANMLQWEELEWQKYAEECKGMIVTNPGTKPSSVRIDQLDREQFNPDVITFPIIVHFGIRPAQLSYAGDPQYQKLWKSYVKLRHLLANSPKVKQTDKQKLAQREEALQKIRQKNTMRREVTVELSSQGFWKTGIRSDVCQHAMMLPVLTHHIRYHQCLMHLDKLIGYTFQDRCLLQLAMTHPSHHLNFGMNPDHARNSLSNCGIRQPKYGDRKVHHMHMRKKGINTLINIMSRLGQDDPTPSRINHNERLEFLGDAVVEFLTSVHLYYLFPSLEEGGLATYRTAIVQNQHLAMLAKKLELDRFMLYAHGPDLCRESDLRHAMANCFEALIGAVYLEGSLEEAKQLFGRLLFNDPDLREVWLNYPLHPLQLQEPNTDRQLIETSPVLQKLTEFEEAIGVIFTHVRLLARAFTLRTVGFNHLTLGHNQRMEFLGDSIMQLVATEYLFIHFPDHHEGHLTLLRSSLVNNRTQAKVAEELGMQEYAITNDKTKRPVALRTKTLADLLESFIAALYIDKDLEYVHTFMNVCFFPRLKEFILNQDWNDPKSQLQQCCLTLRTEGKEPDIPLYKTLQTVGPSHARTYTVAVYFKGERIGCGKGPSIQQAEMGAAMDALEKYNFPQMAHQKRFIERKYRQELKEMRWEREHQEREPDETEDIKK
Described as above.

The target in a further assay is T3, FLAG-DGCR8 (human) (UniProt Q8WYQ5).
T3 sequence: T1 sequence
Described as above.

Assay [1] concerns the target T4, hRRP6 (human (endogenous in HEK293T)) (UniProt Q01780).
T4 sequence: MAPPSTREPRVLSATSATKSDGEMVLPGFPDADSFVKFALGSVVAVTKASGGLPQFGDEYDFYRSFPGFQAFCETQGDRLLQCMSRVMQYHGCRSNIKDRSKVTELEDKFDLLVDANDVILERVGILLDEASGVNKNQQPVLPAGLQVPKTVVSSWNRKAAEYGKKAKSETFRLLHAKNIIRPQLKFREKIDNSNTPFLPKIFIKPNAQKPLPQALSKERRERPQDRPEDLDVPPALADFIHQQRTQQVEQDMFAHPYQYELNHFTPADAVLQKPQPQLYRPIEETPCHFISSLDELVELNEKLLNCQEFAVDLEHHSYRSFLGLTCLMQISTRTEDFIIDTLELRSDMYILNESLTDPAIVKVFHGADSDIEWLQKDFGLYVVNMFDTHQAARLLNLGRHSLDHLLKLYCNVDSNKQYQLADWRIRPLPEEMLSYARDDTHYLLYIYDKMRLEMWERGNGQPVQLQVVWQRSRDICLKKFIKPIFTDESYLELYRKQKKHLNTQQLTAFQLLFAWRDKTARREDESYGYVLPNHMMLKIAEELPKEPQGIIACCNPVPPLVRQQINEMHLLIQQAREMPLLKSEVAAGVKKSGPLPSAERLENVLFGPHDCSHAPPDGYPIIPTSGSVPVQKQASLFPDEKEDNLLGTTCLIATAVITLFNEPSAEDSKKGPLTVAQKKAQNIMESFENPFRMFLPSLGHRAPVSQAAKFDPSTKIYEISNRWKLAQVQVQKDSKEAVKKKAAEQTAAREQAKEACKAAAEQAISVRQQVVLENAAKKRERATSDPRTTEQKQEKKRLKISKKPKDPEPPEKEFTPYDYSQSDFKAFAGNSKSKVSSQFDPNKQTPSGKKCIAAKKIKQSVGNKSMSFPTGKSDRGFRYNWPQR
The assay can be described thus: co-IP; reciprocal immunoprecipitation of endogenous DGCR8 and endogenous hRRP6, western blot; in the presence or absence of RNase A.

With hRRP40 (from UniProt Q9NQT5 1-275), the binding result is “binds” in the assay with T7-DGCR8 (human), “no binding” with FLAG-Drosha and “binds” in the assay with FLAG-DGCR8 (human).
Turning to hRRP41 (from UniProt Q9NPD3 1-245), the binding result was “binds” with T7-DGCR8 (human), “no binding” in the assay with FLAG-Drosha and “binds” with FLAG-DGCR8 (human).

B1: DGCR8 (endogenous) (protein, UniProt Q8WYQ5 1-773)
chain: T1 sequence
B1: the binding result in assay [1] was “binds”.

B2: hDIS3 (enzyme, UniProt Q9Y2L1 1-958)
chain: MLKSKTFLKKTRAGGVMKIVREHYLRDDIGCGAPGCAACGGAHEGPALEPQPQDPASSVCPQPHYLLPDTNVLLHQIDVLEDPAIRNVIVLQTVLQEVRNRSAPVYKRIRDVTNNQEKHFYTFTNEHHRETYVEQEQGENANDRNDRAIRVAAKWYNEHLKKMSADNQLQVIFITNDRRNKEKAIEEGIPAFTCEEYVKSLTANPELIDRLACLSEEGNEIESGKIIFSEHLPLSKLQQGIKSGTYLQGTFRASRENYLEATVWIHGDNEENKEIILQGLKHLNRAVHEDIVAVELLPKSQWVAPSSVVLHDEGQNEEDVEKEEETERMLKTAVSEKMLKPTGRVVGIIKRNWRPYCGMLSKSDIKESRRHLFTPADKRIPRIRIETRQASTLEGRRIIVAIDGWPRNSRYPNGHFVRNLGDVGEKETETEVLLLEHDVPHQPFSQAVLSFLPKMPWSITEKDMKNREDLRHLCICSVDPPGCTDIDDALHCRELENGNLEVGVHIADVSHFIRPGNALDQESARRGTTVYLCEKRIDMVPELLSSNLCSLKCDVDRLAFSCIWEMNHNAEILKTKFTKSVINSKASLTYAEAQLRIDSANMNDDITTSLRGLNKLAKILKKRRIEKGALTLSSPEVRFHMDSETHDPIDLQTKELRETNSMVEEFMLLANISVAKKIHEEFSEHALLRKHPAPPPSNYEILVKAARSRNLEIKTDTAKSLAESLDQAESPTFPYLNTLLRILATRCMMQAVYFCSGMDNDFHHYGLASPIYTHFTSPIRRYADVIVHRLLAVAIGADCTYPELTDKHKLADICKNLNFRHKMAQYAQRASVAFHTQLFFKSKGIVSEEAYILFVRKNAIVVLIPKYGLEGTVFFEEKDKPNPQLIYDDEIPSLKIEDTVFHVFDKVKVKIMLDSSNLQHQKIRMSLVEPQIPGISIPTDTSNMDLNGPKKKKMKLGK
Consider B2, for which the binding entry with FLAG-Drosha was “no binding”.
